The list shows a part of the results, in another mix than the full data.
What follows are targets tested with COC(=O)C#Cc1ccccc1 [methyl 3-phenylpropiolate] (assay: log2 ratio of iodoacetamide-alkyne labeling of the cysteine site, DMSO over compound (competition); higher = stronger covalent engagement of the cysteine by the compound, active = 1 or more). Conditions: 500 µM; treatment time 1 h; system: HEK293T cell lysate.
In short: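 HEK293T lysate (2 mg/mL) was incubated with electrophile (500 µM) or vehicle for 1 h at ambient temperature and then with iodoacetamide alkyne for 1 h. Labelled proteins were clicked to sCIP-TMT reagents, pooled, digested, enriched on streptavidin and measured by Orbitrap Eclipse LC-MS/MS with FAIMS, with FragPipe quantification. The per-cysteine log2 competition ratio is mean control-channel reporter intensity over mean compound-channel reporter intensity. Across three replicates with duplicate channels, cysteines quantified in only one replicate were excluded.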

Sequences of proteins named here, by UniProt entry; tags and fusion partners are left off. A change or cut given only in a name is not applied to a line headed by its entry.
UniProt Q9UHI6: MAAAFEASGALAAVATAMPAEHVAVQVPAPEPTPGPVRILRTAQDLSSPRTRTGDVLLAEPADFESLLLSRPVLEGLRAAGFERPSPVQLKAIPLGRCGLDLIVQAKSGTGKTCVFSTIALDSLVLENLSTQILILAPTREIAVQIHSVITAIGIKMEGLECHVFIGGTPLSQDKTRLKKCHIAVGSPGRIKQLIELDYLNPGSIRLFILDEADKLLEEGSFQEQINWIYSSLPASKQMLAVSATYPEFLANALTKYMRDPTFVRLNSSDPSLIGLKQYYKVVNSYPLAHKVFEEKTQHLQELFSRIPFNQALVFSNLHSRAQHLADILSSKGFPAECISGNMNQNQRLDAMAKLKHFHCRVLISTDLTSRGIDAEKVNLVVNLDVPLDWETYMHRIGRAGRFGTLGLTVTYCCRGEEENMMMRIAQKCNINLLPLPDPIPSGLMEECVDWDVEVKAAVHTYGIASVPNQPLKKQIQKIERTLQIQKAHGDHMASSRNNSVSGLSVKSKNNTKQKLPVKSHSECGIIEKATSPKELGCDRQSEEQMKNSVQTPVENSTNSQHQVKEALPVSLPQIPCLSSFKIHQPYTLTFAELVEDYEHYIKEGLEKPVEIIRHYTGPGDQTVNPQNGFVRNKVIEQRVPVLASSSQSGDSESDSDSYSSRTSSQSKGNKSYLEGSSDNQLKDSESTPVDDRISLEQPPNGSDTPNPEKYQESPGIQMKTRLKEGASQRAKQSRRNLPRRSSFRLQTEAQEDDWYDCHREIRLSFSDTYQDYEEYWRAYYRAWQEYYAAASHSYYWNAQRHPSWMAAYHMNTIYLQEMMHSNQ
UniProt Q9Y314: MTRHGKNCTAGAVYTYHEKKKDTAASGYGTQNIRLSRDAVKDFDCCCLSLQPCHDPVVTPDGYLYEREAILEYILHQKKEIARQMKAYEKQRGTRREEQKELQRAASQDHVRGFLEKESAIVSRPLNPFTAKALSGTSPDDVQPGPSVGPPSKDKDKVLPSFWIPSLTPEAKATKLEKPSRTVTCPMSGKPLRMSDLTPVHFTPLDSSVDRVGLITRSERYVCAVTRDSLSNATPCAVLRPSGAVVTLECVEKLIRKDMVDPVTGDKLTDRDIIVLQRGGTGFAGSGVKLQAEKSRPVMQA
UniProt Q9Y2H0: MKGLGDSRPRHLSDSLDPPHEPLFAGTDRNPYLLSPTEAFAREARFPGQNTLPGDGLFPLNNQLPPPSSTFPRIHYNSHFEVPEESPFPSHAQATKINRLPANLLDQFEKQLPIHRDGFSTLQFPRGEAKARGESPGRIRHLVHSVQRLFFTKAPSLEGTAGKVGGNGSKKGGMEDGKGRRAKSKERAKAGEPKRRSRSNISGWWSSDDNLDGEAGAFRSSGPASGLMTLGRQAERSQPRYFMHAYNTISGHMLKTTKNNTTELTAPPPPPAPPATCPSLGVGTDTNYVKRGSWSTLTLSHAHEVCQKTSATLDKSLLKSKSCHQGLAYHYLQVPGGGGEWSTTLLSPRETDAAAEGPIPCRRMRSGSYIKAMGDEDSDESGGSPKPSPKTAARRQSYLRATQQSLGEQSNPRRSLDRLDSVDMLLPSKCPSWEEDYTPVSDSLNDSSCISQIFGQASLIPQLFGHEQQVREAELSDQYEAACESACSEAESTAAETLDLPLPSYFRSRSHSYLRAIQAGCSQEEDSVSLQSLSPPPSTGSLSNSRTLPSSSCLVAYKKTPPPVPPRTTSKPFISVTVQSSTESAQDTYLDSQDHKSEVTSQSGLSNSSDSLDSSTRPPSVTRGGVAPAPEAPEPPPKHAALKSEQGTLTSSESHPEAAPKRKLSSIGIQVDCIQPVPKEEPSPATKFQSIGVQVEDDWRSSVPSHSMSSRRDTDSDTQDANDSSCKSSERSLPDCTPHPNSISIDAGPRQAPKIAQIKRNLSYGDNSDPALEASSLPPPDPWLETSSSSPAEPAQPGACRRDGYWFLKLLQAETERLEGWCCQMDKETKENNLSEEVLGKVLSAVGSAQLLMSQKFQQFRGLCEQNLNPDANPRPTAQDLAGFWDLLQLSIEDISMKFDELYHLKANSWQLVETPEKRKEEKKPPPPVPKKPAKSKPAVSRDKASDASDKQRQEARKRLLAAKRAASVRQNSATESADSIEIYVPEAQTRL
UniProt Q9UPQ0: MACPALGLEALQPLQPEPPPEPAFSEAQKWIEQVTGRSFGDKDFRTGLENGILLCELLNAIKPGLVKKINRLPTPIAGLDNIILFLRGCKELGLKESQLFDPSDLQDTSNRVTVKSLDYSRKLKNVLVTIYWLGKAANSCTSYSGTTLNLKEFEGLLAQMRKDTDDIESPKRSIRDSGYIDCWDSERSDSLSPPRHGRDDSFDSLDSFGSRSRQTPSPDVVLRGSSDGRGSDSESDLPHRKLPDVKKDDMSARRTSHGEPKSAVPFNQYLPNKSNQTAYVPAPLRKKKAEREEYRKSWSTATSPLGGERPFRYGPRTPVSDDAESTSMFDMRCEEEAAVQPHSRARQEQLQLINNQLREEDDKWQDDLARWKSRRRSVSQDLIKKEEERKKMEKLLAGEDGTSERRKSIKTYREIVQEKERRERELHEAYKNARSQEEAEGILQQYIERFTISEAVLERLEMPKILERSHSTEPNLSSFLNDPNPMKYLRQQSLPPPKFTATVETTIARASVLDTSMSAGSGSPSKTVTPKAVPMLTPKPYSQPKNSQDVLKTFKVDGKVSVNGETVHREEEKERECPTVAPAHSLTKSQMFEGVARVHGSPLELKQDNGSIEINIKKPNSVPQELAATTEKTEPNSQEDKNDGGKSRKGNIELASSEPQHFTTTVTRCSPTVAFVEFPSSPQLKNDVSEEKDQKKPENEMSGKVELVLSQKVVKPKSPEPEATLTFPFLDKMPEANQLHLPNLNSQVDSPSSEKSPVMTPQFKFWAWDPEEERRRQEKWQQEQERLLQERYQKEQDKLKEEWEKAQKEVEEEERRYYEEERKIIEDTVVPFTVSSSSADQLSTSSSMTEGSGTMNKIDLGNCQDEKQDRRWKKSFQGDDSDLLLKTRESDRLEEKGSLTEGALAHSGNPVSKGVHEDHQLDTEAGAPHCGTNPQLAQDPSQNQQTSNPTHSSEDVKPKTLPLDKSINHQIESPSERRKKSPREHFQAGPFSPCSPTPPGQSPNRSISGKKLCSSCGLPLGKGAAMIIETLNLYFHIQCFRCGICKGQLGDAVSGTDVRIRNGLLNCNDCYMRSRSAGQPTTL
UniProt Q9Y3L3: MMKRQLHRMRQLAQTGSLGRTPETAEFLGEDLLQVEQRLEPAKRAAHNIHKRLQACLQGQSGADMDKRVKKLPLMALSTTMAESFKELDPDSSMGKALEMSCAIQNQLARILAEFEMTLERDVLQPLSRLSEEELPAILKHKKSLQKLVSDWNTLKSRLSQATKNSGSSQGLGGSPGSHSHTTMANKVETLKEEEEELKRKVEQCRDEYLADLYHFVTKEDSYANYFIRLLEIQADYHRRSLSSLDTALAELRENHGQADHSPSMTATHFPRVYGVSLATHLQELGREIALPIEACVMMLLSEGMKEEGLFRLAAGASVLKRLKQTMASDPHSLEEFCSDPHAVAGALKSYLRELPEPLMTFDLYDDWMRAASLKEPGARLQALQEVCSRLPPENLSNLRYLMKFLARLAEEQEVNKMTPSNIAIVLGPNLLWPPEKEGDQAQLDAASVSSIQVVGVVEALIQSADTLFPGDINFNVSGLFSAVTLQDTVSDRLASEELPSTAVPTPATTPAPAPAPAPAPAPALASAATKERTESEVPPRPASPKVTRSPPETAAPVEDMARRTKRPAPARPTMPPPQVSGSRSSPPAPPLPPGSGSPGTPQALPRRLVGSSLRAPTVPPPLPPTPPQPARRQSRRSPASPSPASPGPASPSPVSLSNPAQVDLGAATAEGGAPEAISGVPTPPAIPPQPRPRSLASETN
UniProt Q9Y450, whole entry: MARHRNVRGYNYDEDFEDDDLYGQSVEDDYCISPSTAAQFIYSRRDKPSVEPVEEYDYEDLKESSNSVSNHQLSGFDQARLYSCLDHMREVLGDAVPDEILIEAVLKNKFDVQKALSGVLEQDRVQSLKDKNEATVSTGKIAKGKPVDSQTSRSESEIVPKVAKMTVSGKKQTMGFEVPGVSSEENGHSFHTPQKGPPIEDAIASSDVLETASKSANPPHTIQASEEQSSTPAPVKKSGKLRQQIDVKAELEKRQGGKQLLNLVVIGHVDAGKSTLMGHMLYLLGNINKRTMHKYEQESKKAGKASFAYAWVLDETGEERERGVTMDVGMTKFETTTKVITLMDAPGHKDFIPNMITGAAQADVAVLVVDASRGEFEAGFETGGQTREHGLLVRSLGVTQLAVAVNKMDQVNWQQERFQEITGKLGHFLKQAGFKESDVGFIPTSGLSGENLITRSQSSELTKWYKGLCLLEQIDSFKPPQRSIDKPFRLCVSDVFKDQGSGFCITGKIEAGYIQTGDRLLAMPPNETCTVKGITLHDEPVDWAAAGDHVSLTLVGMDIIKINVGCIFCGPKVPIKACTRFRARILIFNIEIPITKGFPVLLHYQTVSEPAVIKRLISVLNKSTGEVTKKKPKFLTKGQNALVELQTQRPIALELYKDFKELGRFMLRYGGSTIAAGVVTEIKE
UniProt Q9UHK0: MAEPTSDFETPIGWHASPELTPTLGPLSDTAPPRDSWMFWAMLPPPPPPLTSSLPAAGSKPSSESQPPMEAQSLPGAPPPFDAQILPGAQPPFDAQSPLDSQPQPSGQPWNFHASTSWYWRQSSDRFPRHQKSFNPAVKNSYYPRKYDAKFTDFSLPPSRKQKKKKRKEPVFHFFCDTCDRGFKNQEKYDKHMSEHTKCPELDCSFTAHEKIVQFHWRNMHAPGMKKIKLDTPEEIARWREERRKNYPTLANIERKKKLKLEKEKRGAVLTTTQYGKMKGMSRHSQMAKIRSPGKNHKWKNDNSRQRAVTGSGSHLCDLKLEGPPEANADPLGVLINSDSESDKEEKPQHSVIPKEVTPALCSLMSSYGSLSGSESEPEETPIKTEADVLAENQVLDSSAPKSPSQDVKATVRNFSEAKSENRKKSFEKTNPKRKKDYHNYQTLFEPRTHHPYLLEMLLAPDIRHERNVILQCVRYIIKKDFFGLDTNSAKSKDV
UniProt Q9UNM6: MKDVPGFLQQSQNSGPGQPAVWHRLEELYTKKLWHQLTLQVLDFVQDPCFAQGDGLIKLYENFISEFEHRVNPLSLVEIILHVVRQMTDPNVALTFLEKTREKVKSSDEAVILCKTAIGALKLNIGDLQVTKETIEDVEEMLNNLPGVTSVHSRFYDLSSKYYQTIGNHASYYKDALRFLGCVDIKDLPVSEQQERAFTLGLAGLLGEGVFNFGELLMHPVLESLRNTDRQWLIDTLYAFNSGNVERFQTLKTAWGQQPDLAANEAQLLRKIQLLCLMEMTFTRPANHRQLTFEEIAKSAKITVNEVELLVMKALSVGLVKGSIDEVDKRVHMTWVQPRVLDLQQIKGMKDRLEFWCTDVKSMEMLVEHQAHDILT
UniProt Q9UPN9: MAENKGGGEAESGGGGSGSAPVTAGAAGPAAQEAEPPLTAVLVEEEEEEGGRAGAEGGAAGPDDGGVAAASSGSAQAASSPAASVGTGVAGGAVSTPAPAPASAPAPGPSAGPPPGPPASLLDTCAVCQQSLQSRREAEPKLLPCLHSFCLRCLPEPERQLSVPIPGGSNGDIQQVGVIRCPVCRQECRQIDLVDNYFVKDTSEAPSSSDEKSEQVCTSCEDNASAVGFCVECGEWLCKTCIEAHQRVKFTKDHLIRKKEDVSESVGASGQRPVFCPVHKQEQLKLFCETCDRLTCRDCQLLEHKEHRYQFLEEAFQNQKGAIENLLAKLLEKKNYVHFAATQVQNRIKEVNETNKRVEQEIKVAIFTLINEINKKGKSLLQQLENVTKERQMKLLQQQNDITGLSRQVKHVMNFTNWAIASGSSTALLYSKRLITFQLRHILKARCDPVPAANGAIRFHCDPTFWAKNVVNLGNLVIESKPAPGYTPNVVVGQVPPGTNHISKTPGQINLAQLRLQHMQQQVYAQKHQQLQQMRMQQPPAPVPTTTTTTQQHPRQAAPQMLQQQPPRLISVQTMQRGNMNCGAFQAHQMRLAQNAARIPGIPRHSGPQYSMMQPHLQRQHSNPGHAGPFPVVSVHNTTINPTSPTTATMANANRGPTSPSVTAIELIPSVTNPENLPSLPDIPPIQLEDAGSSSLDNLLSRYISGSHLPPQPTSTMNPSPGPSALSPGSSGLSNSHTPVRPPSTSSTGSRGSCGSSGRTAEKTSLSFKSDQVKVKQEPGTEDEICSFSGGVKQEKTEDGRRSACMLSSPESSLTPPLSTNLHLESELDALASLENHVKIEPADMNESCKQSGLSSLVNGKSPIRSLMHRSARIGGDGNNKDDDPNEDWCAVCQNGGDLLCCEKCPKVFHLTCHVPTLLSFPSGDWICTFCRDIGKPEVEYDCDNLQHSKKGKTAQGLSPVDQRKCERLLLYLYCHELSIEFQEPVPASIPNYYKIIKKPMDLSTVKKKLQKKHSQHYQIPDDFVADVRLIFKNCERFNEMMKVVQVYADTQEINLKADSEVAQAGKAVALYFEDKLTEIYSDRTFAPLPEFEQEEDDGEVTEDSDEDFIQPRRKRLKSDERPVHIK

log2 ratio of iodoacetamide-alkyne labeling, inactive:
DDX20 C181 (UniProt Q9UHI6) 0.42
NOSIP C185 (UniProt Q9Y314) 0.25
DLGAP4 C726 (UniProt Q9Y2H0) 0.74
LIMCH1 C669 (UniProt Q9UPQ0) 0.285
SH3BP1 C338 (UniProt Q9Y3L3) 0.144
WNK2 C2062 (UniProt Q9Y3S1) 0.515
HBS1L C31 (UniProt Q9Y450) 0.168
DLGAP4 C736 (UniProt Q9Y2H0) 0.69
NOSIP C250 (UniProt Q9Y314) -0.108
DDX20 C524 (UniProt Q9UHI6) 0.6
GPN3 C281 (UniProt Q9UHW5) -0.0834
NUFIP1 C317 (UniProt Q9UHK0) 0.46
PSMD13 C182 (UniProt Q9UNM6) 0.303
ANKRD50 C87 (UniProt Q9ULJ7) 0.248
TRIM33 C461 (UniProt Q9UPN9) 0.461

Reprinted at random: 2 entries already listed, in no set order.
log2 ratio of iodoacetamide-alkyne labeling, inactive:
GPN3 C281 (UniProt Q9UHW5) -0.0834
SH3BP1 C338 (UniProt Q9Y3L3) 0.144
